# Source: article PMC3196588
# Sequences of proteins named here, by UniProt entry; tags and fusion partners are left off.
# UniProt P17931: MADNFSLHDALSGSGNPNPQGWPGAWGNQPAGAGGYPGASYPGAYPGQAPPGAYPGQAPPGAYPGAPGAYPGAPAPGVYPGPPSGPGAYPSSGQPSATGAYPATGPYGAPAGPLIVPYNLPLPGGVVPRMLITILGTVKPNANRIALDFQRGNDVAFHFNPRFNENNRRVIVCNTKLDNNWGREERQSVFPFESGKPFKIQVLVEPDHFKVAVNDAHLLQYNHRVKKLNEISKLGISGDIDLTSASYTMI
# These are yes or no findings as the source states them, for the method shown. Some results given as binding are weak or reduced against the parent protein; the word gives no strength.
# B1: α-2-macroglobulin (protein, UniProt P01023 24-1474)
# chain: SVSGKPQYMVLVPSLLHTETTEKGCVLLSYLNETVTVSASLESVRGNRSLFTDLEAENDVLHCVAFAVPKSSSNEEVMFLTVQVKGPTQEFKKRTTVMVKNEDSLVFVQTDKSIYKPGQTVKFRVVSMDENFHPLNELIPLVYIQDPKGNRIAQWQSFQLEGGLKQFSFPLSSEPFQGSYKVVVQKKSGGRTEHPFTVEEFVLPKFEVQVTVPKIITILEEEMNVSVCGLYTYGKPVPGHVTVSICRKYSDASDCHGEDSQAFCEKFSGQLNSHGCFYQQVKTKVFQLKRKEYEMKLHTEAQIQEEGTVVELTGRQSSEITRTITKLSFVKVDSHFRQGIPFFGQVRLVDGKGVPIPNKVIFIRGNEANYYSNATTDEHGLVQFSINTTNVMGTSLTVRVNYKDRSPCYGYQWVSEEHEEAHHTAYLVFSPSKSFVHLEPMSHELPCGHTQTVQAHYILNGGTLLGLKKLSFYYLIMAKGGIVRTGTHGLLVKQEDMKGHFSISIPVKSDIAPVARLLIYAVLPTGDVIGDSAKYDVENCLANKVDLSFSPSQSLPASHAHLRVTAAPQSVCALRAVDQSVLLMKPDAELSASSVYNLLPEKDLTGFPGPLNDQDNEDCINRHNVYINGITYTPVSSTNEKDMYSFLEDMGLKAFTNSKIRKPKMCPQLQQYEMHGPEGLRVGFYESDVMGRGHARLVHVEEPHTETVRKYFPETWIWDLVVVNSAGVAEVGVTVPDTITEWKAGAFCLSEDAGLGISSTASLRAFQPFFVELTMPYSVIRGEAFTLKATVLNYLPKCIRVSVQLEASPAFLAVPVEKEQAPHCICANGRQTVSWAVTPKSLGNVNFTVSAEALESQELCGTEVPSVPEHGRKDTVIKPLLVEPEGLEKETTFNSLLCPSGGEVSEELSLKLPPNVVEESARASVSVLGDILGSAMQNTQNLLQMPYGCGEQNMVLFAPNIYVLDYLNETQQLTPEIKSKAIGYLNTGYQRQLNYKHYDGSYSTFGERYGRNQGNTWLTAFVLKTFAQARAYIFIDEAHITQALIWLSQRQKDNGCFRSSGSLLNNAIKGGVEDEVTLSAYITIALLEIPLTVTHPVVRNALFCLESAWKTAQEGDHGSHVYTKALLAYAFALAGNQDKRKEVLKSLNEEAVKKDNSVHWERPQKPKAPVGHFYEPQAPSAEVEMTSYVLLAYLTAQPAPTSEDLTSATNIVKWITKQQNAQGGFSSTQDTVVALHALSKYGAATFTRTGKAAQVTIQSSGTFSSKFQVDNNNRLLLQQVSLPELPGEYSMKVTGEGCVYLQTSLKYNILPEKEEFPFALGVQTLPQTCDEPKAHTSFQISLSVSYTGSRSASNMAIVDVKMVSGFIPLKPTVKMLERSNHVSRTEVSSNHVLIYLDKVSNQTLSLFFTVLQDVPVRDLKPAIVKVYDYYETDEFAIAEYNAPCSKDLGNA
# modifications: N-glycans (8 per subunit)
# Biological target: galectin-3 (UniProt P17931)
# Experiment: affinity chromatography; galectin-1 unbound fraction of a serum applied to immobilized galectin-3; bound proteins identified by SDS-PAGE, MALDI-TOF MS and western blot; only the target purified
binder,measurement,value
B1,binding,binds
